Data on one molecule can be found in paper doi:10.1101/2024.04.06.588283.

These are yes or no findings as the source states them, for the method shown. Some results given as binding are weak or reduced against the parent protein; the word gives no strength. Sequences can lack the tags named with a protein.

This experiment concerns the target FCA-eGFP (Arabidopsis) (UniProt O04425). As to the kind of experiment: single particle tracking with stepwise photobleaching.

B1: FCA-eGFP (protein, UniProt O04425 1-747)
chain: MNGPPDRVDFKPMGPHHGGSFRPMGFAYDDGFRPMGPNGGVGGEGTRSIVGARYNYPAKYPPSESPDRRRFIGKAMESDYSVRPTTPPVQQPLSGQKRGYPISDHGSFTGTDVSDRSSTVKLFVGSVPRTATEEEIRPYFEQHGNVLEVALIKDKRTGQQQGCCFVKYATSKDADRAIRALHNQITLPGGTGPVQVRYADGERERIGTLEFKLFVGSLNKQATEKEVEEIFLQFGHVEDVYLMRDEYRQSRGCGFVKYSSKETAMAAIDGLNGTYTMRGCNQPLIVRFAEPKRPKPGESREMAPPVGLGSGPRFQASGPRPTSNFGDSSGDVSHTNPWRPATSRNVGPPSNTGIRGAGSDFSPKPGQATLPSNQGGPLGGYGVPPLNPLPVPGVSSSATLQQQNRAAGQHITPLKKPLHSPQGLPLPLRPQTNFPGAQAPLQNPYAYSSQLPTSQLPPQQNISRATAPQTPLNINLRPTTVSSATVQFPPRSQQQPLQKMQHPPSELAQLLSQQTQSLQATFQSSQQAISQLQQQVQSMQQPNQNLPLSQNGRAGKQQWAGSAIPRVASTTGSTPVSYVQTAAPAVSQSVGSVKCTWTEHTSPDGFKYYYNGLTGESKWEKPEEMIVFEREQQKQQQHQEKPTIQQSQTQLQPLQQQPQQVQQQYQGQQLQQPFYSSLYPTPGASHNTQYPSLPVGQNSQFPMSGIGQNAQDYARTHIPVGAASMNDISRTQQSRQSPQELMWKNKA
Take B1: the binding result is “binds”.
